No constants are given. Whether binding was seen depends on the method and setting. In cells and extracts the contact can be indirect. Some entries that bind do so weakly or less than the wild type.

By UniProt entry, the sequences of proteins in these tests, tags left out. Residues count along the entry.
UniProt P17931: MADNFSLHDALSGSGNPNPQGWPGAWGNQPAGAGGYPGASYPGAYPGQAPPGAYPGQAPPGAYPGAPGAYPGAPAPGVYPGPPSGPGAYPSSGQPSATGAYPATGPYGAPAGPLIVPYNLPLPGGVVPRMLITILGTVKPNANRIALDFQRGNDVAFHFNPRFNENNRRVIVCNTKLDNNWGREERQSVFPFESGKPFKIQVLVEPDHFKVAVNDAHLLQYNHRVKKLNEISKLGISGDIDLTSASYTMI
UniProt O00206, residues 24-839: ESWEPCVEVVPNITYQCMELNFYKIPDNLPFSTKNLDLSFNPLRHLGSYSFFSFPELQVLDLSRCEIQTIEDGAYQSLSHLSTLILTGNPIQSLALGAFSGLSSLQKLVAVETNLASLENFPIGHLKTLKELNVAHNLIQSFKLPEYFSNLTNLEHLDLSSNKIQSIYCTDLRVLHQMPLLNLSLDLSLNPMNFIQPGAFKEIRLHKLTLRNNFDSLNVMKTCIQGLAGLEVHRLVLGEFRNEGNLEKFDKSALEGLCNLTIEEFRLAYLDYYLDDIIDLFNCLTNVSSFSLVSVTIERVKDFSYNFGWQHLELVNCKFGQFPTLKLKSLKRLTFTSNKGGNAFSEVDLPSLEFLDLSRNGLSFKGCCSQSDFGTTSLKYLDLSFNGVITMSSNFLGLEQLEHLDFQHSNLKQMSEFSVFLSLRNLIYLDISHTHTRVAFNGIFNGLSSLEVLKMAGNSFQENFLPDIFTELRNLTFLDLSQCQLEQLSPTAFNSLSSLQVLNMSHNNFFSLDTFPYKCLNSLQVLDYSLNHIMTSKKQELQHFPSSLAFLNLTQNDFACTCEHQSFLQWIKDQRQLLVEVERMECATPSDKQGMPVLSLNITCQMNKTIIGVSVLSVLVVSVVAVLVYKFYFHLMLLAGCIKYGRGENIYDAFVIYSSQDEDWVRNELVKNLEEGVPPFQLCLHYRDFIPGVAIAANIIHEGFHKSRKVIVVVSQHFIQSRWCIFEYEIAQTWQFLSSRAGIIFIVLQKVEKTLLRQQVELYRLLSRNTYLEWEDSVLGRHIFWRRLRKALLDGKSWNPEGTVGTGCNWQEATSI

The target in the test is galectin-3 (human (endogenous in human brain vascular smooth muscle cells)) (UniProt P17931). Kind of test: co-IP; lysate of VSMCs with protease inhibitors incubated with anti-galectin-3 antibody or IgG and magnetic beads at 4 °C for 12 h; beads washed with lysis buffer; eluate analysed by Western blot; for TLR4, cells transfected with mimic-NC or tRF-AspGTC mimic.

Regarding “toll-like receptor 4 (from UniProt O00206 24-839)”, the binding entry is reported as “binds”.

Values taken from article PMC11704088.
